Values from PubChem BioAssay AID1259254 (NCATS, 2017)
The whole screen tested about 59,000 reagents; shown is a random part of them. Over the whole deposit, about 1,550 (2.6%) are marked active. 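G2 share is only a proxy for re-replication; each gene was hit by three separate siRNAs, and active genes were retested.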 The raw values are shown without normalisation. The numbers tell different reagents against one gene apart. Not stated in the record: the amount of reagent.

Screen: 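Gene knock-downs that lead to re-replication, shown by excess G2 DNA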 (primary screen)
Cell system: human HCT116 colorectal cancer cells
Reagent: single siRNA against human genes
Timing: 3 days
Measured: 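Imaged Hoechst DNA stain sorts each cell into a cycle phase by DNA amount; per plate, G2 fraction set to 0% for non-targeting and 100% for GMNN siRNA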
Reading the numbers: G2 robust z-score and G2 cells, % of GMNN control: higher = more G2 cells, more excess DNA replication; raw share of cells in G2: higher = larger share of cells with G2 DNA content
Call rule: 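Active siRNAs have a G2 robust z of 5 or more median absolute deviations over the median, which in these data means about 38% or higher of GMNN control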

| target gene | siRNA no. | G2 robust z-score | G2 cells, % of GMNN control | raw share of cells in G2 (%) | Call |
| --- | --- | --- | --- | --- | --- |
| CFAP298 | 1 | 0.0259 | 3.15 | 5.59 | inactive |
| CFAP298 | 2 | 0.201 | 4.38 | 6.55 | inactive |
| CFAP298 | 3 | 1.33 | 12.3 | 6.94 | inactive |
| CFAP99 | 1 | 0.0342 | 3.21 | 4.98 | inactive |
| CFAP99 | 2 | -0.875 | -3.19 | 2.25 | inactive |
| CFAP99 | 3 | -0.552 | -0.914 | 4.41 | inactive |
| CFAP99 | 4 | -0.58 | -1.12 | 3.19 | inactive |
| CFAP99 | 5 | 0.282 | 4.95 | 5.29 | inactive |
| CFAP99 | 6 | 0.625 | 7.37 | 5.62 | inactive |
| CHST11 | 1 | 3.42 | 27.1 | 14.2 | inactive |
| CHST11 | 2 | 1.98 | 16.9 | 13.6 | inactive |
| CHST11 | 3 | -1.1 | -4.8 | 2.47 | inactive |

Looked up above.
CFAP99 #5, Call → inactive
Value for CHST11 #3 under “G2 cells, % of GMNN control”: -4.8

Additional records follow.
| target gene | siRNA no. | G2 robust z-score | G2 cells, % of GMNN control | raw share of cells in G2 (%) | Call |
| --- | --- | --- | --- | --- | --- |
| PEX26 | 1 | -1.15 | -5.12 | 1.5 | inactive |
| PEX26 | 2 | 1.26 | 11.8 | 9.07 | inactive |
| PEX26 | 3 | -0.693 | -1.91 | 3.35 | inactive |
| CNOT2 | 1 | 0.0141 | 3.07 | 4.46 | inactive |
| CNOT2 | 2 | 0.0342 | 3.21 | 6.34 | inactive |
| CNOT2 | 3 | 0.792 | 8.54 | 7.59 | inactive |
| PMCH | 1 | -0.859 | -3.08 | 3.66 | inactive |
| PMCH | 2 | 0.143 | 3.97 | 5.79 | inactive |
| PMCH | 3 | 0.13 | 3.88 | 4.76 | inactive |
| KLF11 | 1 | -0.387 | 0.244 | 3.61 | inactive |
| KLF11 | 2 | 0.335 | 5.32 | 8.36 | inactive |
| KLF11 | 3 | 0.669 | 7.67 | 6.55 | inactive |
| HDHD3 | 1 | -0.287 | 0.95 | 2.69 | inactive |
| HDHD3 | 2 | -0.861 | -3.09 | 3.08 | inactive |
| HDHD3 | 3 | -0.56 | -0.969 | 3.17 | inactive |
| GTF2IP20 | 1 | -0.554 | -0.933 | 3.26 | inactive |
| GTF2IP20 | 2 | -0.531 | -0.767 | 3.13 | inactive |
| GTF2IP20 | 3 | 2.24 | 18.8 | 9.49 | inactive |
